According to patent US6964766B1, “Peptides for use in immunotherapy of autoimmune diseases” (Akzo Nobel N.V., priority 1998, dated 2005):
Part of at least one peptide drawing is inferred or uncertain, most often the ends. No end group written: not given here.

Legend:
[1] = test system: HC gp-39 (263-275) induced DTH response; assay: HC gp-39 (263-275)-specific DTH assay, tolerance induction by nasal application; assay type: in vivo; conditions: Balb/c mice immunised with HC gp-39 (263-275) in IFA
Source text: FIG. 2a, 2b, 2c In vivo tolerization with HC gp-39 (263-275) or YKL-39 ([…]) • Balb/c mice were tolerized by intranasal application of 50, 10 or 2 micrograms of HC gp-39 (263-275), SEQ ID NO: 3, (FIG. 2b) or YKL-39 (266-278) (FIG. 2c) followed by immunization with HC gp-39 (263-275). Mice that were pretreated with saline or that were left untreated were included as controls (FIG. 2a).
A HC gp-39 (263-275)-specific DTH assay suitable to monitor tolerance induction with peptide antigens was developed. […] This peptide-based DTH system was used to detect modulation of the DTH response by nasal application of HC gp-39 (263-275) peptide.

[2] = target: T1, HLA-DRB1*0401-encoded molecules (Homo sapiens, UniProt P01903+P01911, A100K/A169T/F76Y/I96L/K127E/L162R/M171V/N62H/P40V/Q125Y/R42H/S133A/S149N/S66Y/V115G/V209L/W38E); conditions: known / Verheijden et al. 1997; cited from earlier work
T1 construct: HLA-DR4 (DRB1*0401) molecules were purified from the homozygous EBV-transformed human B lymphoblastoid cell lines Huly138IC2; endogenous in cells; host or cells: homozygous EBV-transformed human B lymphoblastoid cell line Huly138IC2

[3] = test system: peripheral blood T cells from RA patients; conditions: cited from earlier work
[4] = test system: HLA-DRB1*0401-restricted hybridomas specific for HC gp-39 (263-275) (8B12, 14G11, 20H5); assay: stimulation of HC gp-39 (263-275)-specific T-cell hybridomas (IL-2 production); assay type: cell-based, mouse; conditions: presented by DRB1*0401 EBV-transformed B cells, 48 hr
Protocol: To test the cross reactivity of the 3 different, HC gp39-specific hybridoma cell lines with the YKL-39 or the chitotriosidase peptide, 5×10^4 hybridoma cells and 2×10^5 irradiated (12000 RAD), EBV-transformed B cells carrying the DRB1*0401 specificity were incubated in 150 μl volumes in wells of a round-bottomed microtiter plate. Peptide antigen (HC gp-39 (263-275), YKL-39 (266-278), chitotriosidase (269-282) or a control peptide) was added in 50 μl volumes to duplicate wells. Forty-eight hr later 100 μl of the culture supernatant was assayed for IL-2 production using a sandwich ELISA with Pharmingen antibodies specific for mouse IL-2.

Sequence	downmodulation of the DTH response (in words) [1]	affinity for DRB1*0401 molecules (in words) [2]	RA patients responding to the peptide [3]	activation of T-cell hybridomas, IL-2 production (in words) [4]
RSFTLASSETGVG [HC gp-39 (263-275), RSFTLASSETGVG, reference compound]	in a dose-dependent manner, downmodulated	high relative affinity	8 out of 18	
RSFTLASSSDTRVG [Chi (269-282), RSFTLASSSDTRVG, reference compound]				did not generate a response
